Most values lie at the floor of the assay. Slopes are relative: functional sequences can read slightly below zero.
The substances below were run on Saccharomyces cerevisiae PS128 hsf1 delta, HSF1(1-493) fusion (assay: growth estimate (transactivation domain function in HSF1 fusion, heat-shock survival) (a.u. (slope of normalised read count over time)); higher = stronger growth at 37°C, i.e. more transactivation activity). Conditions: library: random library.

Substance | growth estimate
TLTEKPPDKVPLRARLFLEH | < -0.25
TSAPTFGRKNSGTF | < -0.25
HAVWLSIDPRSWGASLK | < -0.25
QSEACDINLNVTRSRQIRLS | < -0.25
LVFAGKVSPHRQVGQFLLLS | < -0.25
YGQPVPILFWGSGEQG | < -0.25
TKCTYVPPHRILRGIN | < -0.25
FDTVLV | < -0.25
GISPISTPGVVSCTRDRSPS | < -0.25
GTSDAINMIYSIIHDRRVTM | -0.243
CTIG | < -0.25
LLIALDHERNKSSRVLCNWL | < -0.25
TSV | < -0.25
QATLDQAGD | < -0.25
SKTLRNHDAWAKSTCFENVG | < -0.25
CSFGPL | < -0.25
LHPAKYSARASVRATDWNSR | < -0.25
PHSPIGLPYW | < -0.25
RLDVVARAWPPLRQ | < -0.25
NRVSDASFTFAGSLQRRGTT | < -0.25
WVAG | < -0.25
LYARLGEAVLPQRL | < -0.25
IPKTIRSGNVKVPHAPEHYL | < -0.25
IFCTPDQTPAVPEQPSADRN | < -0.25
QTAPR | < -0.25

Substance | growth estimate
RGTGAPNHLRDPELHCVWRA | < -0.25
KPKFSRVEAGHRLIAIARAF | -0.228
GPSIRDCRCKL | < -0.25
CLGYRTYSGVRRELTGT | < -0.25
PSRVRKGPDRVLSQVAVTLS | < -0.25
WVRSPLSHADWRSP | -0.246
DGALFCLSMNCSDRTRLCCV | < -0.25
ALSVR | < -0.25
DFFWI | < -0.25
RLRGEGS | < -0.25
TWEALAKRVCLWRPWWTTCQ | < -0.25
MSERPGVA | < -0.25
IAKDGSWNGKATVKRQVSTR | < -0.25
DGATGFEGAVRGSL | < -0.25
RIIAGTGPPGRRWLAVPYVE | < -0.25
FEPSHVCSLNTFKDVTGHWI | < -0.25
NERGVHDGQIGGP | < -0.25
LSWGDVSGAGLARDYPLKLD | 0.146
LRGGQGTDWPIVFNTYQRQP | < -0.25
YLVDDLLRQPATGDGGRI | -0.248
VLPLFRASVT | < -0.25
IKWKVRPSPIP | < -0.25
VRGRKAPVKPRCYWTNFLCE | -0.248
VSGIIGECPSKSIDVLEFTV | < -0.25
IPLQMAVLLVSHAPLSDCVV | < -0.25

Substance | growth estimate
WIWIDAN | < -0.25
RLVMQ | < -0.25
LSITCGIVTQLRIGQANKIN | < -0.25
PTLQRGSARVDCVNAL | < -0.25
VTIAPPLPTSGAGRYANNLQ | < -0.253
SSKGVRRGIQGSYRGFGNQG | < -0.25
GDLSILSATQEMGPLAAGSP | < -0.25
FHL | < -0.25
HHPRIFPIAYRNVSLGGPAA | -0.246
LSDRYDPRCGLQFSG | < -0.25
LTDSSPNFPEGKRVIN | < -0.25
RRMFASVLHPASEAEISVCR | < -0.25
PLIKSGRGNWESTRQLSRIM | < -0.25
RRFSNQTRKCIRVHIQIYGG | < -0.25
SRDRCEGASHQDKTCGNYV | < -0.25
AFPQEGD | < -0.25
GSRPPALGRCGSGTIAFVIP | < -0.25
GKLPGSLSSAAGGVGYPAFR | < -0.25
WTA | < -0.25
GWM | < -0.25
MAKDYS | < -0.25
PLEFLGALVP | < -0.25
RRSSIWGRSLGGPARSTPSF | -0.229
CINYLRVQWLQAETVIDSRD | < -0.25
STYGLMEGKMSAAVLFMYSV | < -0.25

Substance | growth estimate
CSWSCSMGEYGLCVAFL | < -0.25
RID | < -0.25
HSRNPSDTATSHVGFGHAAS | < -0.25
EGDNGARVYY | < -0.25
WGNSLCEIPN | < -0.25
RGDHCLFHGYEASAVSPSSS | < -0.25
CLSSSRFGDSS | < -0.25
VWPRLAGSRLESGQEASYNT | < -0.25
SVMSIYATSNVASNNPINRS | < -0.25
RPVWFGYGIAMFRLSPVPQR | < -0.25
PRDILSRRKAASPHEGVISN | < -0.25
MRL | < -0.25
EICQSTGGGSVRARLVSSRV | < -0.25
FQLGTVTRGSDLIGGRRR | < -0.25
RLKTGLQSTEAQFIVGTGKV | < -0.25
GGLNCVWYVR | < -0.25
RRICGV | < -0.25
CAIDIIVSGAATFDI | < -0.25
KLIDYTLSISDMVVYPFRRY | < -0.25
TKADPEGPLAGSHRAVVIAQ | < -0.25
LVTS | < -0.25
LEFGSSEPSSMKGSLTYNLD | < -0.25
GYWEKIGLVI | < -0.25
SIWFSSKRDTLYLFRYASFK | < -0.25
AFVSQRAR | < -0.25

Substance | growth estimate
RASSTRTAAADKC | < -0.25
TCSCQ | -0.246
VHRP | < -0.25
LLIEVRFR | < -0.25
VCGRQSEELGTSKLWTGNVS | < -0.25
NLCDSFHPTSFQASRCSWYK | -0.206
VENGGQETTLQWVTIGSLKP | < -0.25
VWAHKRSLFGLQASMAFTRA | < -0.25
RGTNYRLARYDFMGRGRG | < -0.25
PAVFVECERRPELLRIGLST | < -0.25
GRINE | < -0.25
RIKTVDTVTCIRAVCTT | < -0.25
RIAKNLMSSGGLVA | < -0.25
GTRWFFCETTMSTGLVSLLI | < -0.25
RSSHGLLRDTIRN | -0.25
VGQVDAF | < -0.25
PEAFGVGHSMAHVWNHPLVS | < -0.25
HCSMPEHGRSFFKKPAHAQQ | < -0.25
GLLHEGIQMVGYVPPSMRFL | < -0.25
MPGNTSQECLAECSRVNDVR | < -0.25
LPVC | < -0.25
LYKRVRRRKVHKGCPNRGQE | < -0.25
LRTELSAGASMGLVGWTESC | < -0.25
AWQTQGVHIRSPQ | < -0.25
VLGYYES | < -0.253

Substance | growth estimate
LHRSFD | < -0.25
GDLRPAGWSYIAGLLVLD | -0.242
DRQDCGSFRSFHLFSE | < -0.25
CIAATTICLGTMAEPAHVKN | < -0.25
PEEDF | < -0.25
RIAASEWDLKRCLKSAPASI | < -0.25
ITPRDLRGLRGSTSLRNVTF | -0.243
RREDRASPAFPI | < -0.25
GNRLSIAAFEFGFVGA | < -0.25
SQVSVFMRPLAYTSNRTDVQ | < -0.25
LSPLSHTLGVQWRKRAGVWR | < -0.25
EAFLELN | < -0.25
LSLERAPCNGVRSR | < -0.25
LWG | < -0.25
HSFIRRFLACFVFTFRGAFS | < -0.25
GYCHQLYTEFGREIAACEYD | < -0.25
THCHSLSHVLKSVCPR | < -0.25
VGPVSGLSHCEIHDWIWLP | < -0.25
GVGSRAVKNWTLWHSLYRAR | < -0.25
QFFF | < -0.25
CSRTRADPARLRMWKS | < -0.25
KLIIRASRISQSPSPLANNR | < -0.25
IARGFLWGWEYSQSICLSEG | -0.24
GVGGYVLSNERGNLSTGPGV | < -0.25
GRAGVYREPHGQGTPHPQSR | < -0.25

A different layout for some results above.
Substance	growth estimate
RREDRASPAFPI	< -0.25
EAFLELN	< -0.25
LWG	< -0.25
HSFIRRFLACFVFTFRGAFS	< -0.25
THCHSLSHVLKSVCPR	< -0.25
CSRTRADPARLRMWKS	< -0.25
IARGFLWGWEYSQSICLSEG	-0.24

2 entries picked at random from the list so far, as already listed:
Substance | growth estimate
RREDRASPAFPI | < -0.25
GVGSRAVKNWTLWHSLYRAR | < -0.25

(further entries)

Substance | growth estimate
LGSGTRGVPRSVWTIHEVDP | < -0.25
LHGKWVHRDGPRLVQNPQSA | < -0.25
IPPVLP | < -0.25
LLWILLNDGRAILSHRPVYR | < -0.25
ANDGRVVGTACLSDESVAPF | < -0.25
VLPKCAAGGYKSWHINSCGR | < -0.25
LFIPRTFACNRPHAEG | < -0.25
GRLVETGGTTLFQHRCRST | < -0.25
LNGLECC | < -0.25
LVTLVLNLST | < -0.25
YLIIHIPAHRLTAAVTRGLR | < -0.25
CCMGRIAL | < -0.25
TAAYIRHMRATNPHANASAL | < -0.25
LSIGRTGGSPRESAIGRST | < -0.25
RVRSGLT | -0.239
DWNERIGYIRLLNFPRPSLS | < -0.25
LGHQLGSVQSQSALHMRATP | < -0.25
EPRKRPTV | < -0.25
PVRVPLPGFHPQGVVCTYAP | -0.196
CTQQGKDSMGCRCGAPSSKV | < -0.25
CRSNWHCQRQRRKVIISARN | < -0.25
LGIAITGVGKVVFEIEDNIM | < -0.25
PGSATSVRGILSHV | -0.214
RYENGCRLHVTRACHLQPSS | < -0.25
GPNLRKSLMGHRRMPFPIIG | < -0.25

Substance | growth estimate
GCWPFTSVGW | -0.22
KKTMTPALRICRSPTDASQV | < -0.25
GTGRKLSDISPILTPRWGPV | < -0.25
SLGLGTFVLYVSEGPRFQSQ | < -0.25
LPIVYLWPS | < -0.25
EREWTGYLQQGACRCRGETS | < -0.25
YCGIRSYSPMIARTVLPHVG | < -0.25
CLRRMRDSRRVGVAGKTSVA | < -0.25
ERGSTQHRIQYTTWCQTSRR | < -0.25
GLLGAGTYTATTEE | < -0.25
QHVGRSVWGRREWYQAGLSG | < -0.25
PYMTGLEVQNRSTG | < -0.25
LGSVFGPQAVYQ | < -0.25
DMSSLFTGVQLSLLSSGFYA | < -0.25
CVAKYIAYQNVALGRLSSLC | < -0.25
MTL | < -0.25
RMRCGQLGQANCIPG | < -0.25
GLVEACNFKRMVTSYCYSHM | < -0.25
YGVQVADHQDILEFNLVPKT | < -0.25

From the supplement of paper PMC5949888
